Reference: PubChem BioAssay AID504834 (National Center for Advancing Translational Sciences (NCATS), 2011)
The campaign covered roughly 320,000 compounds. About 22,000 (6.9%) were called active. The inconclusive results got no clear call from the source; some entries with a clear call stand among them for comparison. The call rests on the fitted dose curve; in most records, active means well fitted inhibition curve with a large enough effect; inconclusive means small, poorly fitted or top-dose-only effect, or another doubt; inactive means no such curve, though single readings can be large or run the other way. Potencies beside an inconclusive call are fits to weak or partial responses and may not hold up.

assay: Primary qHTS for delayed death inhibitors of the malarial parasite plastid, 96 hour incubation; conditions: P. falciparum luciferase reporter growth; series mostly up to 28.7 µM; activity change, negative = inhibition: at the top concentration
Procedure, shortened: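 Two parasite generations (96 h, 37 C, 5% CO2) of compound exposure in infected erythrocytes (0.05% parasitemia, 2% hematocrit). Luciferase-reporter P. falciparum; decreased luminescence indicates inhibited growth, aimed at apicoplast-acting delayed death.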
On the % scale 0 is the no-effect control and ±100 the full control effect; potency means the concentration at half of the fitted maximal effect.

| SMILES | activity change, negative = inhibition | Potency |
| --- | --- | --- |
| CCOC(=O)Cc1csc(NC(=O)c2sc3nc4cc(C)ccc4cc3c2N)n1 | inactive: -26.5% | – |
| CCOC(=O)c1ccc(NC(=O)[C@@H](NC(N)=O)C(C)C)cc1 | inactive: 5.78% | – |
| O=C(COc1ccccc1)Nc1c2c(nn1-c1ccccc1)CS(=O)C2 (stereo unspecified) | inactive: 1.5% | – |
| Cc1ccc(N(C)S(=O)(=O)c2ccc(-c3cc(C)no3)s2)cc1 | – | inconclusive: 13.1 µM [inhibitor, single point] |
| CCCn1c(=O)c2c(nc3n2CCCN3CCc2ccccc2)n(C)c1=O | – | inconclusive: 2.33 µM [inhibitor, partial curve] |
| CSc1ccc(S(=O)(=O)NCCCOC(C)C)cc1 | inactive: 386% | – |
| O=C(NCC1COc2ccccc2O1)c1cccc(S(=O)(=O)N2CCCCC2)c1 (stereo unspecified) | – | inconclusive: 10.4 µM [inhibitor, partial curve, poor fit] |
| COCc1nnc(NC(=O)c2ccc(S(=O)(=O)N3CCCC3)cc2)o1 | – | inconclusive: 18.5 µM [inhibitor, single point] |
| O=C(/C=C/c1ccco1)NC(=S)Nc1nc(-c2ccc(Cl)cc2)cs1 | – | inconclusive: 9.28 µM [inhibitor, partial curve, poor fit] |
| CCOc1ccc(C(C)=O)cc1COC(=O)C1=COCCO1 | – | inconclusive: 18.5 µM [inhibitor, single point] |
| COc1ccc(NC(=O)CSc2nc(C3CC3)nc3ccccc23)cc1 | inactive: -24% | – |
| COc1ccc(C(=O)COC(=O)C2CCC(=O)N2)cc1 (stereo unspecified) | – | inconclusive: 4.15 µM [inhibitor, partial curve, poor fit] |
| CCOc1cc(C(=O)O)cc(Cl)c1OCC#N | – | active: 7.38 µM |
| NC(=S)N/N=C/C=C/c1ccccc1 | – | inconclusive: 18.5 µM [inhibitor, single point] |
| CC1CN(C(=O)CN2C(=O)NC3(CCCCCCC3)C2=O)CC(C)O1 (stereo unspecified) | – | inconclusive: 1.17 µM [inhibitor, partial curve, poor fit] |
| CC(C)(C)NC(=O)CN(C(=O)c1csnn1)c1cccc2c1CCCC2 | – | inconclusive: 0.928 µM [inhibitor, partial curve, poor fit] |
| O=C(CNC(=S)N(Cc1ccccc1F)C1CCCCC1)NC1CC1 | – | inconclusive: 20.8 µM [inhibitor, partial curve, poor fit] |
| Cc1ccc2[nH]c3nc(SCCN4CCOCC4)nnc3c2c1 | inactive: 78.7% | – |
| O=C(c1cnn2c(C(F)F)cc(-c3ccccc3)nc12)N1CCN(Cc2ccc3c(c2)OCO3)CC1 | – | inconclusive: 16.5 µM [inhibitor, single point] |
| Cc1ccc(-c2nnc(-c3ccncc3)n2-c2ccc(C)cc2)cc1 | inactive: -16% | – |
| Cc1cc(C)c2cc(C(=O)N3CCC(C(=O)c4ccc(F)cc4)CC3)[nH]c2c1 | – | inconclusive: 14.7 µM [inhibitor, single point] |
| COc1cccc(/C=C/C(=O)OCC(=O)NCC2CCCO2)c1OC (stereo unspecified) | inactive: 470% | – |
| CN(Cc1ccon1)C(=O)CC1C(=O)NCCN1Cc1cccc(F)c1F (stereo unspecified) | – | inconclusive: 5.86 µM [inhibitor, partial curve] |
| Cc1ccc(S(=O)(=O)NC(=O)c2cc(C)n(-c3ccccc3)c2C)cc1 | inactive: -14.8% | – |

Looked up by compound from above, three records:

| SMILES | activity change, negative = inhibition | Potency |
| --- | --- | --- |
| O=C(c1cnn2c(C(F)F)cc(-c3ccccc3)nc12)N1CCN(Cc2ccc3c(c2)OCO3)CC1 | – | inconclusive: 16.5 µM [inhibitor, single point] |
| O=C(/C=C/c1ccco1)NC(=S)Nc1nc(-c2ccc(Cl)cc2)cs1 | – | inconclusive: 9.28 µM [inhibitor, partial curve, poor fit] |
| CSc1ccc(S(=O)(=O)NCCCOC(C)C)cc1 | inactive: 386% | – |

Going on with the list.

| SMILES | activity change, negative = inhibition | Potency |
| --- | --- | --- |
| COC(=O)c1ccc(C2SCC(=O)N2Cc2ccccc2)cc1 (stereo unspecified) | inactive: 4.3% | – |
| CCCC[C@H]1COCCS(=O)(=O)N1Cc1ccc(F)cc1 | inactive: 3.11% | – |
| CCCC12CN3CC(C)(CN(C1)C3c1ccco1)C2=O (stereo unspecified) | inactive: 105% | – |
| CN(c1ccccc1)S(=O)(=O)c1ccc(Cl)c(C(=O)Nc2ccccc2N2CCOCC2)c1 | – | inconclusive: 9.28 µM [inhibitor, partial curve] |
| Cc1cc(C)cc(NC(=O)CN2CCN(c3ccccn3)CC2)c1 | – | inconclusive: 18.5 µM [inhibitor, single point] |
| O=C(c1ccc(COCC(F)(F)F)o1)N1CCCC1 | – | inconclusive: 4.65 µM [inhibitor, partial curve] |
| O=C1c2cccc(OCC(=O)N3CCCc4ccccc43)c2CCN1Cc1ccc(F)cc1 | – | active: 10.4 µM |
| COC(=O)c1cc(CSc2nc3ccccc3[nH]2)oc1C | inactive: 92.3% | – |
| COc1cc2ccccc2cc1C(=O)Nc1sc2c(c1C(N)=O)CCN(C(C)C)C2 | – | active: 5.86 µM |
| CCOc1ccc(NC(=O)NCc2ccccn2)cc1 | inactive: 152% | – |
| CCC(Sc1ncccc1C(=O)Oc1cccc([N+](=O)[O-])c1)C(=O)Nc1ccccc1OC (stereo unspecified) | – | inconclusive: 11.7 µM [inhibitor, single point] |
| COc1ccc(OCC(=O)Nc2cccc(-c3nc4ccccc4o3)c2)cc1 | – | inconclusive: 18.5 µM [inhibitor, single point] |
| COc1cccc(NC(=O)CN(C)C(=O)CCc2nc3sc4c(c3c(=O)[nH]2)CCCC4)c1 | – | inconclusive: 7.38 µM [inhibitor, partial curve] |
| O=C(CNc1cc(S(=O)(=O)N2CCOCC2)ccc1NCC1CCCO1)Nc1ccc(C(F)(F)F)cc1 (stereo unspecified) | – | inconclusive: 18.5 µM [inhibitor, single point] |
| O=C(Nc1ccc2c(c1)OCO2)O[C@@H]1C[C@H]2CCC(=O)N3CC[C@@H](C1)[C@@H]23 | – | inconclusive: 18.5 µM [inhibitor, single point] |
| Cc1cc(C(F)F)n2nc(C(=O)Nc3ccc(S(=O)(=O)N4CCCC4)cc3)nc2n1 | inactive: 0.178% | – |
| COc1ccc(NC(=O)c2cc(CC(C)C)nc3ccccc23)cc1 | inactive: 124% | – |
| CCn1cc(CN2CCC(n3nccc3NC(=O)c3ccccc3OC)CC2)cn1 | – | inconclusive: 11.7 µM [inhibitor, single point] |
| CCCN1CCN(c2nc3c([nH]2)c(=N)ncn3CC(O)CO)CC1 (stereo unspecified) | – | inconclusive: 18.5 µM [inhibitor, single point] |
| CCCn1c(SCC(=O)Nc2ccccc2C(=O)OC)nc2c1c(=O)n(C)c(=O)n2C | inactive: 65.7% | – |
| Cc1cc(C)c(S(=O)(=O)c2ccccc2Cl)c(Cl)n1 | – | inconclusive: 1.17 µM [inhibitor, full curve, poor fit] |
| Cc1ccc(NC(=O)C2COc3ccccc3O2)cc1 (stereo unspecified) | – | inconclusive: 10.4 µM [inhibitor, single point] |
| N#Cc1cc(C(=O)c2cc(Br)ccc2O)cn(C2CC2)c1=O | – | inconclusive: 11.7 µM [inhibitor, single point] |
| CN(C)c1cccc2c1c(NC(=O)Nc1ccc(F)cc1F)nn2C | – | inconclusive: 8.28 µM [inhibitor, single point] |

| SMILES | activity change, negative = inhibition | Potency |
| --- | --- | --- |
| CCOC(=O)/C=C/C(=O)OCC(=O)Nc1ccc(Cl)cn1 | – | inconclusive: 20.8 µM [inhibitor, partial curve, poor fit] |
| Cc1cccc(OCC(=O)NCc2nc(-c3ccccc3)no2)c1 | – | inconclusive: 7.38 µM [inhibitor, partial curve, poor fit] |
| O=C(COC(=O)Cn1cnc2ccccc21)Nc1cccc(S(=O)(=O)N2CCOCC2)c1 | inactive: 0.495% | – |
| O=C(NCCc1ccccc1)C1CCCN(c2cnccn2)C1 (stereo unspecified) | inactive: 18.8% | – |
| COc1ccc(-n2cc(CNCCc3ncc(C)[nH]3)c(-c3ccccc3Cl)n2)cc1 | – | inconclusive: 1.85 µM [inhibitor, partial curve, poor fit] |
| CCC(CC)NC(=O)c1oc2ccccc2c1COc1ccccc1 | – | active: 4.15 µM |
| COc1ccc(OCC(=O)Nc2ccc3c(c2)nc(CCn2ccccc2=O)n3C)cc1 | – | active: 5.22 µM |
| CCOC(=O)c1nn(-c2ccc(C)c(C)c2)c(=O)c2c(N)scc12 | – | active: 13.1 µM |
| Cc1c(OCC(=O)N2CCC(C(=O)O)CC2)ccc2c3c(c(=O)oc12)CCC3 | inactive: 60.7% | – |
| CS(=O)(=O)N(CC(=O)NCc1ccc(Cl)cc1)C1CCCCC1 | – | inconclusive: 20.8 µM [inhibitor, partial curve, poor fit] |
| Cc1cc(NC(=O)CSc2nnc(C3COc4ccccc4O3)n2N)no1 (stereo unspecified) | – | inconclusive: 0.37 µM [inhibitor, partial curve, poor fit] |
| COC1C(C)=C(C)C(=O)N1Cc1ccccc1 (stereo unspecified) | – | inconclusive: 18.5 µM [inhibitor, single point] |
| COc1cc(C(=O)NCC(c2cccnc2)N2CCN(c3ccccc3)CC2)cc(OC)c1OC (stereo unspecified) | – | inconclusive: 13.1 µM [inhibitor, single point] |
| COc1ccc(NC(=O)c2oc3ccccc3c2NC(=O)c2ccc3c(c2)OCO3)cc1 | – | inconclusive: 18.5 µM [inhibitor, partial curve, poor fit] |
| O=C(Nc1ccccc1)C(c1ccccc1)C1CCCC1 (stereo unspecified) | – | inconclusive: 0.928 µM [inhibitor, full curve, poor fit] |
| CC(C)(C)NS(=O)(=O)c1ccc(CCC(=O)NCc2ccco2)cc1 | – | active: 11.7 µM |
| O=C(CSc1cccc[n+]1[O-])c1cc(Cl)ccc1Cl | – | active: 0.828 µM |
| CC(C)c1ccc2[nH]c3c(c2c1)CCC/C3=N\NC(=O)c1ccncc1 | – | inconclusive: 16.5 µM [inhibitor, single point] |
| CCOC(=O)c1nc2ccccc2c(=O)n1-c1ccc(C)cc1C | – | inconclusive: 11.7 µM [inhibitor, single point] |
| Cc1ccc(Cn2nc(C)c(C(=O)N3CCN(S(=O)(=O)/C=C/c4ccccc4)CC3)c2C)cc1 | – | active: 3.29 µM |
| COc1ccccc1-c1sc2ccccc2c1-c1ccc2c(c1)OCCO2 | – | inconclusive: 4.15 µM [inhibitor, single point] |
| COC(=O)CCCC1=CC2=CC(=O)C(C)(OC(=O)c3cccs3)C(=O)C2=CN1Cc1ccccc1 (stereo unspecified) | – | inconclusive: 16.5 µM [inhibitor, partial curve, poor fit] |
| CC(/C=N/NC(=O)c1sc(N)nc1C)=C\c1ccccc1 | – | inconclusive: 6.57 µM [inhibitor, partial curve, poor fit] |
